PubChem BioAssay AID1259308, NCATS | 2017
Assay: 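Candidate targets for better recombinant protein yield in mammalian cells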 (primary screen). System: human HEK293 embryonic kidney cells stably expressing firefly luciferase (HEK-CMV-Luc2-Hygro). Knock-down reagent: single siRNA against human genes, 0.8 pmol siRNA per well. Timing: 72 h. Read-out: 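Reporter luminescence and viable-cell signal on separate replicate plates, given as percent of non-targeting control and median/MAD z-scores, plus per-cell luciferase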. Direction: total luciferase, z-score and total luciferase, % of control: higher = more reporter protein produced. Call rule: 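Active when the median/MAD z-score for overall luciferase is greater than 3; a gene was taken forward for validation with new siRNAs if at least two of its three siRNAs passed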. Calls: active = raised luciferase; inactive = no rise.
In all, the deposit lists about 59,000 reagents; shown is a part drawn at random. In the full data, about 1,510 (2.6%) got an active call. 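Calls use total luciferase alone and ignore viability, so some active siRNAs may act by altering cell number.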 The numbers tell different reagents against one gene apart. Further read-outs or replicates are left out here.

CCDC27 (coiled-coil domain containing 27) #1
- total luciferase, z-score: -0.388
- total luciferase, % of control: 74.2
- Call: inactive

CCDC27 (coiled-coil domain containing 27) #2
- total luciferase, z-score: 0.143
- total luciferase, % of control: 84.7
- Call: inactive

CCDC27 (coiled-coil domain containing 27) #3
- total luciferase, z-score: -0.131
- total luciferase, % of control: 79.3
- Call: inactive

CRIPAK (retired record) #1
- total luciferase, z-score: -0.637
- total luciferase, % of control: 69.2
- Call: inactive

CRIPAK (retired record) #2
- total luciferase, z-score: -0.775
- total luciferase, % of control: 66.5
- Call: inactive

CRIPAK (retired record) #3
- total luciferase, z-score: 0.211
- total luciferase, % of control: 86.1
- Call: inactive

ICOSLG (inducible T cell costimulator ligand) #1
- total luciferase, z-score: 1.11
- total luciferase, % of control: 104
- Call: inactive

ICOSLG (inducible T cell costimulator ligand) #2
- total luciferase, z-score: -0.799
- total luciferase, % of control: 66
- Call: inactive

ICOSLG (inducible T cell costimulator ligand) #3
- total luciferase, z-score: -0.407
- total luciferase, % of control: 73.8
- Call: inactive

ATAT1 (alpha tubulin acetyltransferase 1) #1
- total luciferase, z-score: 0.608
- total luciferase, % of control: 94
- Call: inactive

ATAT1 (alpha tubulin acetyltransferase 1) #2
- total luciferase, z-score: -0.308
- total luciferase, % of control: 75.8
- Call: inactive

ATAT1 (alpha tubulin acetyltransferase 1) #3
- total luciferase, z-score: -1.71
- total luciferase, % of control: 47.8
- Call: inactive

SPATA46 (spermatogenesis associated 46) #1
- total luciferase, z-score: 2.57
- total luciferase, % of control: 133
- Call: inactive

SPATA46 (spermatogenesis associated 46) #2
- total luciferase, z-score: 0.916
- total luciferase, % of control: 100
- Call: inactive

SPATA46 (spermatogenesis associated 46) #3
- total luciferase, z-score: -1.96
- total luciferase, % of control: 42.9
- Call: inactive

EED (embryonic ectoderm development) #1
- total luciferase, z-score: -0.743
- total luciferase, % of control: 67.1
- Call: inactive

EED (embryonic ectoderm development) #2
- total luciferase, z-score: 0.0375
- total luciferase, % of control: 82.6
- Call: inactive

EED (embryonic ectoderm development) #3
- total luciferase, z-score: 0.639
- total luciferase, % of control: 94.6
- Call: inactive

NXPH2 (neurexophilin 2) #1
- total luciferase, z-score: -0.573
- total luciferase, % of control: 70.5
- Call: inactive

NXPH2 (neurexophilin 2) #2
- total luciferase, z-score: 1.12
- total luciferase, % of control: 104
- Call: inactive

NXPH2 (neurexophilin 2) #3
- total luciferase, z-score: 0.116
- total luciferase, % of control: 84.2
- Call: inactive

MFSD11 (major facilitator superfamily domain containing 11) #1
- total luciferase, z-score: 4.25
- total luciferase, % of control: 166
- Call: active

MFSD11 (major facilitator superfamily domain containing 11) #2
- total luciferase, z-score: 2.88
- total luciferase, % of control: 139
- Call: inactive

MFSD11 (major facilitator superfamily domain containing 11) #3
- total luciferase, z-score: 0.169
- total luciferase, % of control: 85.2
- Call: inactive

2 entries from above, ordered by “total luciferase, z-score”, ascending.
ICOSLG (inducible T cell costimulator ligand) #2
- total luciferase, z-score: -0.799
- total luciferase, % of control: 66
- Call: inactive

ICOSLG (inducible T cell costimulator ligand) #1
- total luciferase, z-score: 1.11
- total luciferase, % of control: 104
- Call: inactive

Additional results:
TXNIP (thioredoxin interacting protein) #1
- total luciferase, z-score: 0.126
- total luciferase, % of control: 84.4
- Call: inactive

TXNIP (thioredoxin interacting protein) #2
- total luciferase, z-score: -1.51
- total luciferase, % of control: 51.8
- Call: inactive

TXNIP (thioredoxin interacting protein) #3
- total luciferase, z-score: -0.254
- total luciferase, % of control: 76.8
- Call: inactive

MLST8 (MTOR associated protein MLST8) #1
- total luciferase, z-score: -0.423
- total luciferase, % of control: 73.5
- Call: inactive

MLST8 (MTOR associated protein MLST8) #2
- total luciferase, z-score: -0.264
- total luciferase, % of control: 76.6
- Call: inactive

MLST8 (MTOR associated protein MLST8) #3
- total luciferase, z-score: -1.45
- total luciferase, % of control: 53
- Call: inactive

RHOD (ras homolog family member D) #1
- total luciferase, z-score: 1.45
- total luciferase, % of control: 111
- Call: inactive

RHOD (ras homolog family member D) #2
- total luciferase, z-score: -1.71
- total luciferase, % of control: 47.9
- Call: inactive

RHOD (ras homolog family member D) #3
- total luciferase, z-score: 0.676
- total luciferase, % of control: 95.3
- Call: inactive

GPHB5 (glycoprotein hormone subunit beta 5) #1
- total luciferase, z-score: -2.51
- total luciferase, % of control: 32
- Call: inactive

GPHB5 (glycoprotein hormone subunit beta 5) #2
- total luciferase, z-score: -0.949
- total luciferase, % of control: 63
- Call: inactive

GPHB5 (glycoprotein hormone subunit beta 5) #3
- total luciferase, z-score: -0.318
- total luciferase, % of control: 75.6
- Call: inactive

ZNF429 (zinc finger protein 429) #1
- total luciferase, z-score: -0.0748
- total luciferase, % of control: 80.4
- Call: inactive

ZNF429 (zinc finger protein 429) #2
- total luciferase, z-score: 0.963
- total luciferase, % of control: 101
- Call: inactive

ZNF429 (zinc finger protein 429) #3
- total luciferase, z-score: 1.32
- total luciferase, % of control: 108
- Call: inactive

OR52N4 (olfactory receptor family 52 subfamily N member 4) #1
- total luciferase, z-score: 0.366
- total luciferase, % of control: 89.2
- Call: inactive

OR52N4 (olfactory receptor family 52 subfamily N member 4) #2
- total luciferase, z-score: 0.621
- total luciferase, % of control: 94.2
- Call: inactive

OR52N4 (olfactory receptor family 52 subfamily N member 4) #3
- total luciferase, z-score: 0.821
- total luciferase, % of control: 98.2
- Call: inactive
